Measurements as given in publication doi:10.1101/2023.02.03.526966.
No constants are given. Whether binding was seen depends on the method and setting. Binding seen in cells or lysates may run through a third protein. Some binding calls cover weakened binding; strength is not graded here. Where a sequence is shown, tags or fusion partners need not be part of it.

T1: mouse nidogen-1 (mouse) (UniProt P10493)
T1 sequence: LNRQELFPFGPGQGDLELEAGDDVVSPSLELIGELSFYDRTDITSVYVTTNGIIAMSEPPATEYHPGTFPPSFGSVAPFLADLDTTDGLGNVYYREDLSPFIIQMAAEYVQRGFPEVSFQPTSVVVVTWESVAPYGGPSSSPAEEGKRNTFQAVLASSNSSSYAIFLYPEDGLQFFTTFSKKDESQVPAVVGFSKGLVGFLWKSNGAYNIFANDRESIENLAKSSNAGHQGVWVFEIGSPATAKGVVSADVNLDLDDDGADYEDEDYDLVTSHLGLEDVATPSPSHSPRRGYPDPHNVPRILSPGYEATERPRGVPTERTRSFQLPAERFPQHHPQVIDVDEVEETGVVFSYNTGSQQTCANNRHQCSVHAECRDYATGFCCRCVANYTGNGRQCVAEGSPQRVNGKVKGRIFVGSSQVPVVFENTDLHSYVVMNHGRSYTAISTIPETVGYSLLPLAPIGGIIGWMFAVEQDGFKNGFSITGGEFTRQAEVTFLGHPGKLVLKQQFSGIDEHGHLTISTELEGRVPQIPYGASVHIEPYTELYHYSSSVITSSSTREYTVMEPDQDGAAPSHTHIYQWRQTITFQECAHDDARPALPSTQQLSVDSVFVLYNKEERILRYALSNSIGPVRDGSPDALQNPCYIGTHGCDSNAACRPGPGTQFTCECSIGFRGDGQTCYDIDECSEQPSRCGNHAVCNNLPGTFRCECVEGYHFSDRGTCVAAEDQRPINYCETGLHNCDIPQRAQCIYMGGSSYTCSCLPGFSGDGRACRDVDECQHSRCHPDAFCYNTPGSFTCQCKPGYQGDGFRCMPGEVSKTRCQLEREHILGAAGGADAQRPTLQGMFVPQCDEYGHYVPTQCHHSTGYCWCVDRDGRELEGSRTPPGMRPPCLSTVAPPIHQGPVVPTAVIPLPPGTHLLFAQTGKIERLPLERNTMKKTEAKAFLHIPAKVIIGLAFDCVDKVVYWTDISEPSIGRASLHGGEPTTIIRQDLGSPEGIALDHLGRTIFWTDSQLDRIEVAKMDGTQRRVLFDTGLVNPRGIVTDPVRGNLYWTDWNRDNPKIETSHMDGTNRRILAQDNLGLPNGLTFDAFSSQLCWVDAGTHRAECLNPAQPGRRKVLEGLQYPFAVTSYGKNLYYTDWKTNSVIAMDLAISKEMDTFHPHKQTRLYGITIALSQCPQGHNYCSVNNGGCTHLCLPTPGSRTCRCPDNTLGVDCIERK

T2: mouse nidogen-2 (mouse) (UniProt O88322)
T2 sequence: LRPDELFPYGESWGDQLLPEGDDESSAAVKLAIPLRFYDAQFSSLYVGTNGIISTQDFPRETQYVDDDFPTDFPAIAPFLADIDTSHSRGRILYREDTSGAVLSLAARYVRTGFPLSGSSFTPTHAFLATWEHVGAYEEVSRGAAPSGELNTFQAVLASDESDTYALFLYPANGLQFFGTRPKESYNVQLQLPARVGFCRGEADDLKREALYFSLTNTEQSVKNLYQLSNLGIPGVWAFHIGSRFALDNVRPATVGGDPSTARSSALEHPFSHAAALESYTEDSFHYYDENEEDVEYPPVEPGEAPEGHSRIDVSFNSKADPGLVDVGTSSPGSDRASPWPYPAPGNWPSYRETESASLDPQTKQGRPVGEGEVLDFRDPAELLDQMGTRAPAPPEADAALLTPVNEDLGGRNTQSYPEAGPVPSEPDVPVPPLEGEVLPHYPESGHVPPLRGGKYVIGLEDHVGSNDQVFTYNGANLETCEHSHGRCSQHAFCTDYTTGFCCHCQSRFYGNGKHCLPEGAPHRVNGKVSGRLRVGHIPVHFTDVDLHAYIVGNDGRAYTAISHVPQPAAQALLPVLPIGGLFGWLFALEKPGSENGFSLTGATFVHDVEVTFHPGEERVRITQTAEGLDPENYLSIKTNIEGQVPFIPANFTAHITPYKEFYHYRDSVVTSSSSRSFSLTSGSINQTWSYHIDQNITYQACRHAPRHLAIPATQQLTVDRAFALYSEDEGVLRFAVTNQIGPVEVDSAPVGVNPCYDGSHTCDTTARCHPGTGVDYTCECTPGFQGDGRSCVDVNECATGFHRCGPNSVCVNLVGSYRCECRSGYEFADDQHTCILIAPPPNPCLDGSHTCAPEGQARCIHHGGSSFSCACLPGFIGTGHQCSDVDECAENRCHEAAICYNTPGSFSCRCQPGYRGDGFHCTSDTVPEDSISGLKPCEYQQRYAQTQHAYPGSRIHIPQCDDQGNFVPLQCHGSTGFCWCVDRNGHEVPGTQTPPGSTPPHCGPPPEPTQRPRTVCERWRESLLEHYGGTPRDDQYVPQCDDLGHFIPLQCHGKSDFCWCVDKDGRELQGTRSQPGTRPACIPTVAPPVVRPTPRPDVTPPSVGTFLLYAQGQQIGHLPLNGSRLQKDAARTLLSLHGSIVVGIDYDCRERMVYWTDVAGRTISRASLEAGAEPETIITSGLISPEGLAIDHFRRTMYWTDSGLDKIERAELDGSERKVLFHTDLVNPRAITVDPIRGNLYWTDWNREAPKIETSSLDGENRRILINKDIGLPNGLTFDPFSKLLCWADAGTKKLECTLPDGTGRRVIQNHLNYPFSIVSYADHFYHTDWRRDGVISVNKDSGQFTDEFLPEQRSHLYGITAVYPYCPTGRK

B1: HA-ePTPRδ-Myc (extracellular domain of human PTPRδ fused to the PDGF receptor transmembrane domain) (domain or fragment, UniProt P23468 21-1265)
chain: ETPPRFTRTPVDQTGVSGGVASFICQATGDPRPKIVWNKKGKKVSNQRFEVIEFDDGSGSVLRIQPLRTPRDEAIYECVASNNVGEISVSTRLTVLREDQIPRGFPTIDMGPQLKVVERTRTATMLCAASGNPDPEITWFKDFLPVDTSNNNGRIKQLRSESIGGTPIRGALQIEQSEESDQGKYECVATNSAGTRYSAPANLYVRELREVRRVPPRFSIPPTNHEIMPGGSVNITCVAVGSPMPYVKWMLGAEDLTPEDDMPIGRNVLELNDVRQSANYTCVAMSTLGVIEAIAQITVKALPKPPGTPVVTESTATSITLTWDSGNPEPVSYYIIQHKPKNSEELYKEIDGVATTRYSVAGLSPYSDYEFRVVAVNNIGRGPPSEPVLTQTSEQAPSSAPRDVQARMLSSTTILVQWKEPEEPNGQIQGYRVYYTMDPTQHVNNWMKHNVADSQITTIGNLVPQKTYSVKVLAFTSIGDGPLSSDIQVITQTGVPGQPLNFKAEPESETSILLSWTPPRSDTIANYELVYKDGEHGEEQRITIEPGTSYRLQGLKPNSLYYFRLAARSPQGLGASTAEISARTMQSKPSAPPQDISCTSPSSTSILVSWQPPPVEKQNGIITEYSIKYTAVDGEDDKPHEILGIPSDTTKYLLEQLEKWTEYRITVTAHTDVGPGPESLSVLIRTNEDVPSGPPRKVEVEAVNSTSVKVSWRSPVPNKQHGQIRGYQVHYVRMENGEPKGQPMLKDVMLADAQWEFDDTTEHDMIISGLQPETSYSLTVTAYTTKGDGARSKPKLVSTTGAVPGKPRLVINHTQMNTALIQWHPPVDTFGPLQGYRLKFGRKDMEPLTTLEFSEKEDHFTATDIHKGASYVFRLSARNKVGFGEEMVKEISIPEEVPTGFPQNLHSEGTTSTSVQLSWQPPVLAERNGIITKYTLLYRDINIPLLPMEQLIVPADTTMTLTGLKPDTTYDVKVRAHTSKGPGPYSPSVQFRTLPVDQVFAKNFHVKAVMKTSVLLSWEIPENYNSAMPFKILYDDGKMVEEVDGRATQKLIVNLKPEKSYSFVLTNRGNSAGGLQHRVTAKTAPDVLRTKPAFIGKTNLDGMITVQLPEVPANENIKGYYIIIVPLKKSRGKFIKPWESPDEMELDELLKEISRKRRSIRYGREVELKPYIAAHFDVLPTEFTLGDDKHYGGFTNKQLQSGQEYVFFVLAVMEHAESKMYATSPYSDPVVSMDLDPQPITDEEE
B2: HA-ePTPRσ-Myc (extracellular domain of human PTPRσ fused to the PDGF receptor transmembrane domain) (domain or fragment, UniProt Q13332 30-1282)
chain: EEPPRFIKEPKDQIGVSGGVASFVCQATGDPKPRVTWNKKGKKVNSQRFETIEFDESAGAVLRIQPLRTPRDENVYECVAQNSVGEITVHAKLTVLREDQLPSGFPNIDMGPQLKVVERTRTATMLCAASGNPDPEITWFKDFLPVDPSASNGRIKQLRSETFESTPIRGALQIESSEETDQGKYECVATNSAGVRYSSPANLYVRELREVRRVAPRFSILPMSHEIMPGGNVNITCVAVGSPMPYVKWMQGAEDLTPEDDMPVGRNVLELTDVKDSANYTCVAMSSLGVIEAVAQITVKSLPKAPGTPMVTENTATSITITWDSGNPDPVSYYVIEYKSKSQDGPYQIKEDITTTRYSIGGLSPNSEYEIWVSAVNSIGQGPPSESVVTRTGEQAPASAPRNVQARMLSATTMIVQWEEPVEPNGLIRGYRVYYTMEPEHPVGNWQKHNVDDSLLTTVGSLLEDETYTVRVLAFTSVGDGPLSDPIQVKTQQGVPGQPMNLRAEARSETSITLSWSPPRQESIIKYELLFREGDHGREVGRTFDPTTSYVVEDLKPNTEYAFRLAARSPQGLGAFTPVVRQRTLQSKPSAPPQDVKCVSVRSTAILVSWRPPPPETHNGALVGYSVRYRPLGSEDPEPKEVNGIPPTTTQILLEALEKWTQYRITTVAHTEVGPGPESSPVVVRTDEDVPSAPPRKVEAEALNATAIRVLWRSPAPGRQHGQIRGYQVHYVRMEGAEARGPPRIKDVMLADAQWETDDTAEYEMVITNLQPETAYSITVAAYTMKGDGARSKPKVVVTKGAVLGRPTLSVQQTPEGSLLARWEPPAGTAEDQVLGYRLQFGREDSTPLATLEFPPSEDRYTASGVHKGATYVFRLAARSRGGLGEEAAEVLSIPEDTPRGHPQILEAAGNASAGTVLLRWLPPVPAERNGAIVKYTVAVREAGALGPARETELPAAAEPGAENALTLQGLKPDTAYDLQVRAHTRRGPGPFSPPVRYRTFLRDQVSPKNFKVKMIMKTSVLLSWEFPDNYNSPTPYKIQYNGLTLDVDGRTTKKLITHLKPHTFYNFVLTNRGSSLGGLQQTVTAWTAFNLLNGKPSVAPKPDADGFIMVYLPDGQSPVPVQSYFIVMVPLRKSRGGQFLTPLGSPEDMDLEELIQDISRLQRRSLRHSRQLEVPRPYIAARFSVLPPTFHPGDQKQYGGFDNRGLEPGHRYVLFVLAVLQKSEPTFAASPFSDPFQLDNPDPQPIVDGEEG

Assays:
mouse nidogen-1 (mouse) = target: T1, mouse nidogen-1 (mouse); assay: co-IP
mouse nidogen-2 (mouse) = target: T2, mouse nidogen-2 (mouse); assay: co-IP

Binder | binding (mouse nidogen-1 (mouse)) | binding (mouse nidogen-2 (mouse))
B1 | binds | binds
B2 | no binding | no binding
